# In the supplement of paper PMC8728848:
# The other results are listed elsewhere or left out.
# Legend:
# Assay in all cases: glycan array binding signal (z-score within array); higher = stronger binding
# Details in all cases: glycan notation: IUPAC condensed, linker removed
# [1] = target: Gal(b1-4)GlcNAc(b1-2)[Gal(b1-4)GlcNAc(b1-6)]Man(a1-6)[GlcNAc(b1-4)][Gal(b1-4)GlcNAc(b1-2)Man(a1-3)]Man(b1-4)GlcNAc(b1-4)GlcNAc
# Summary of the method: (§1)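 Negative Z-scores can be read as non-binding. The Z-score is calculated within each array and then averaged across arrays of one protein sequence at different concentrations or buffers and across linkers. Arrays, 3228 in all, were curated from the Consortium for Functional Glycomics database and kept only where the protein sequence was available.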
# [2] = target: Gal(b1-4)GlcNAc(b1-2)[Gal(b1-4)GlcNAc(b1-6)]Man(a1-6)[GlcNAc(b1-4)][Gal(b1-4)GlcNAc(b1-2)[Gal(b1-4)GlcNAc(b1-4)]Man(a1-3)]Man(b1-4)GlcNAc(b1-4)[Fuc(a1-6)]GlcNAc
# Summary of the method: as §1
# [3] = target: Gal(b1-4)GlcNAc(b1-3)Gal(b1-3)GalNAc
# Summary of the method: as §1
# [4] = target: Gal(b1-4)GlcNAc(b1-3)Gal(b1-3)GlcNAc
# Summary of the method: as §1
# [5] = target: Gal(b1-4)GlcNAc(b1-3)Gal(b1-4)Glc
# Summary of the method: as §1
# [6] = target: Gal(b1-4)GlcNAc(b1-3)Gal(b1-4)GlcNAc
# Summary of the method: as §1
# [7] = target: Gal(b1-4)GlcNAc(b1-3)Gal(b1-4)GlcNAc(b1-2)Man(a1-3)[Gal(b1-4)GlcNAc(b1-3)Gal(b1-4)GlcNAc(b1-2)Man(a1-6)]Man(b1-4)GlcNAc(b1-4)GlcNAc
# Summary of the method: as §1
# [8] = target: Gal(b1-4)GlcNAc(b1-3)Gal(b1-4)GlcNAc(b1-2)Man(a1-3)[Gal(b1-4)GlcNAc(b1-3)Gal(b1-4)GlcNAc(b1-2)Man(a1-6)]Man(b1-4)GlcNAc(b1-4)[Fuc(a1-6)]GlcNAc
# Summary of the method: as §1
# [9] = target: Gal(b1-4)GlcNAc(b1-3)Gal(b1-4)GlcNAc(b1-2)[Gal(b1-4)GlcNAc(b1-3)Gal(b1-4)GlcNAc(b1-6)]Man(a1-6)[Gal(b1-4)GlcNAc(b1-3)Gal(b1-4)GlcNAc(b1-2)Man(a1-3)]Man(b1-4)GlcNAc(b1-4)GlcNAc
# Summary of the method: as §1
# [10] = target: Gal(b1-4)GlcNAc(b1-3)Gal(b1-4)GlcNAc(b1-2)[Gal(b1-4)GlcNAc(b1-3)Gal(b1-4)GlcNAc(b1-6)]Man(a1-6)[Gal(b1-4)GlcNAc(b1-3)Gal(b1-4)GlcNAc(b1-2)Man(a1-3)]Man(b1-4)GlcNAc(b1-4)[Fuc(a1-6)]GlcNAc
# Summary of the method: as §1
# [11] = target: Gal(b1-4)GlcNAc(b1-3)Gal(b1-4)GlcNAc(b1-3)Gal(b1-4)GlcNAc
# Summary of the method: as §1
# [12] = target: Gal(b1-4)GlcNAc(b1-3)Gal(b1-4)GlcNAc(b1-3)Gal(b1-4)GlcNAc(b1-2)Man(a1-3)[Gal(b1-4)GlcNAc(b1-3)Gal(b1-4)GlcNAc(b1-3)Gal(b1-4)GlcNAc(b1-2)Man(a1-6)]Man(b1-4)GlcNAc(b1-4)GlcNAc
# Summary of the method: as §1
# [13] = target: Gal(b1-4)GlcNAc(b1-3)Gal(b1-4)GlcNAc(b1-3)Gal(b1-4)GlcNAc(b1-2)Man(a1-3)[Gal(b1-4)GlcNAc(b1-3)Gal(b1-4)GlcNAc(b1-3)Gal(b1-4)GlcNAc(b1-2)Man(a1-6)]Man(b1-4)GlcNAc(b1-4)[Fuc(a1-6)]GlcNAc
# Summary of the method: as §1
# [14] = target: Gal(b1-4)GlcNAc(b1-3)Gal(b1-4)GlcNAc(b1-3)Gal(b1-4)GlcNAc(b1-2)[Gal(b1-4)GlcNAc(b1-3)Gal(b1-4)GlcNAc(b1-3)Gal(b1-4)GlcNAc(b1-6)]Man(a1-6)[Gal(b1-4)GlcNAc(b1-3)Gal(b1-4)GlcNAc(b1-3)Gal(b1-4)GlcNAc(b1-2)Man(a1-3)]Man(b1-4)GlcNAc(b1-4)[Fuc(a1-6)]GlcNAc
# Summary of the method: as §1
# [15] = target: Gal(b1-4)GlcNAc(b1-3)Gal(b1-4)GlcNAc(b1-3)Gal(b1-4)GlcNAc(b1-3)Gal(b1-4)GlcNAc(b1-2)Man(a1-3)[Gal(b1-4)GlcNAc(b1-3)Gal(b1-4)GlcNAc(b1-3)Gal(b1-4)GlcNAc(b1-3)Gal(b1-4)GlcNAc(b1-2)Man(a1-6)]Man(b1-4)GlcNAc(b1-4)GlcNAc
# Summary of the method: as §1
# [16] = target: Gal(b1-4)GlcNAc(b1-3)Gal(b1-4)GlcNAc(b1-3)Gal(b1-4)GlcNAc(b1-3)Gal(b1-4)GlcNAc(b1-2)Man(a1-3)[Gal(b1-4)GlcNAc(b1-3)Gal(b1-4)GlcNAc(b1-3)Gal(b1-4)GlcNAc(b1-3)Gal(b1-4)GlcNAc(b1-2)Man(a1-6)]Man(b1-4)GlcNAc(b1-4)[Fuc(a1-6)]GlcNAc
# Summary of the method: as §1
# [17] = target: Gal(b1-4)GlcNAc(b1-3)Gal(b1-4)GlcNAc(b1-3)Gal(b1-4)GlcNAc(b1-3)Gal(b1-4)GlcNAc(b1-2)[Gal(b1-4)GlcNAc(b1-3)Gal(b1-4)GlcNAc(b1-3)Gal(b1-4)GlcNAc(b1-3)Gal(b1-4)GlcNAc(b1-6)]Man(a1-6)[Gal(b1-4)GlcNAc(b1-3)Gal(b1-4)GlcNAc(b1-3)Gal(b1-4)GlcNAc(b1-3)Gal(b1-4)GlcNAc(b1-2)Man(a1-3)]Man(b1-4)GlcNAc(b1-4)[Fuc(a1-6)]GlcNAc
# Summary of the method: as §1
# [18] = target: Gal(b1-4)GlcNAc(b1-3)Gal(b1-4)GlcNAc(b1-3)Gal(b1-4)GlcNAc(b1-3)Gal(b1-4)GlcNAc(b1-3)Gal(b1-4)GlcNAc(b1-2)Man(a1-3)[Gal(b1-4)GlcNAc(b1-3)Gal(b1-4)GlcNAc(b1-3)Gal(b1-4)GlcNAc(b1-3)Gal(b1-4)GlcNAc(b1-3)Gal(b1-4)GlcNAc(b1-2)Man(a1-6)]Man(b1-4)GlcNAc(b1-4)GlcNAc
# Summary of the method: as §1
# [19] = target: Gal(b1-4)GlcNAc(b1-3)Gal(b1-4)GlcNAc(b1-3)Gal(b1-4)GlcNAc(b1-3)Gal(b1-4)GlcNAc(b1-3)Gal(b1-4)GlcNAc(b1-2)Man(a1-3)[Gal(b1-4)GlcNAc(b1-3)Gal(b1-4)GlcNAc(b1-3)Gal(b1-4)GlcNAc(b1-3)Gal(b1-4)GlcNAc(b1-3)Gal(b1-4)GlcNAc(b1-2)Man(a1-6)]Man(b1-4)GlcNAc(b1-4)[Fuc(a1-6)]GlcNAc
# Summary of the method: as §1
# [20] = target: Gal(b1-4)GlcNAc(b1-3)Gal(b1-4)GlcNAc(b1-3)Gal(b1-4)GlcNAc(b1-3)Gal(b1-4)GlcNAc(b1-3)Gal(b1-4)GlcNAc(b1-2)[Gal(b1-4)GlcNAc(b1-3)Gal(b1-4)GlcNAc(b1-3)Gal(b1-4)GlcNAc(b1-3)Gal(b1-4)GlcNAc(b1-3)Gal(b1-4)GlcNAc(b1-6)]Man(a1-6)[Gal(b1-4)GlcNAc(b1-3)Gal(b1-4)GlcNAc(b1-3)Gal(b1-4)GlcNAc(b1-3)Gal(b1-4)GlcNAc(b1-3)Gal(b1-4)GlcNAc(b1-2)Man(a1-3)]Man(b1-4)GlcNAc(b1-4)[Fuc(a1-6)]GlcNAc
# Summary of the method: as §1
# [21] = target: Gal(b1-4)GlcNAc(b1-3)Gal(b1-4)GlcNAc(b1-3)Gal(b1-4)GlcNAc(b1-3)Gal(b1-4)GlcNAc(b1-3)Gal(b1-4)GlcNAc(b1-3)Gal(b1-4)GlcNAc(b1-2)Man(a1-3)[Gal(b1-4)GlcNAc(b1-3)Gal(b1-4)GlcNAc(b1-3)Gal(b1-4)GlcNAc(b1-3)Gal(b1-4)GlcNAc(b1-3)Gal(b1-4)GlcNAc(b1-3)Gal(b1-4)GlcNAc(b1-2)Man(a1-6)]Man(b1-4)GlcNAc(b1-4)GlcNAc
# Summary of the method: as §1
# [22] = target: Gal(b1-4)GlcNAc(b1-3)Gal(b1-4)GlcNAc(b1-3)GalNAc
# Summary of the method: as §1
# [23] = target: Gal(b1-4)GlcNAc(b1-3)Gal(b1-4)GlcNAc(b1-3)[Gal(b1-4)GlcNAc(b1-3)Gal(b1-4)GlcNAc(b1-6)]GalNAc
# Summary of the method: as §1
binder,measurement,setting,value
PX9961Q-bfa-504-27-504 (Bacteroides fragilis) (protein) NDWLDRKPADGIPSEDAITNYNDALTARTGMYDGIQGNSNATSYYGARMFYYGDVRADDMQARTQGMRSSSCYEMLYTVDDAPNMWNIPYNVIRRANRLIEAINEKKVTDATEAQIGKIYSEALVVRALVHFDLVRIYGMPYTADNGASLGVPVIVKPLERNDLPSRNTVAEVYTQVITDLTDAINSGYLAKDQTPGYINEWAAKALLTRVYLTKGDNENALKVAEDIITNSPYKLWTNEEYVNAWYKSNGAHTNEMIFEVVNASNDDWTDRNGIAYLLNENGYADAIVTKSFMNMLSQDPKDVRIGMVLPAQYDKDLQEEYGDAKIFINKFPADKDDVGEMRLNNLPLLRLSEVYLSAAEAAAKLGGHQDKAAKYLNEIVQRANPEAKAISEADATVERIILERRKEMIGEGQRYFDALRNNETIVRYKDEGDKGYHYSLIKESQSFDRTYFRAILPIPVDETNVNPNLRAQQNPGY,glycan array binding signal (z-score),[1],-0.41
same,glycan array binding signal (z-score),[2],-0.323
same,glycan array binding signal (z-score),[3],-0.068
same,glycan array binding signal (z-score),[4],-0.556
same,glycan array binding signal (z-score),[5],-0.506
same,glycan array binding signal (z-score),[6],-0.406
same,glycan array binding signal (z-score),[7],1.45
same,glycan array binding signal (z-score),[8],0.652
same,glycan array binding signal (z-score),[9],-0.936
same,glycan array binding signal (z-score),[10],0.479
same,glycan array binding signal (z-score),[11],-0.686
same,glycan array binding signal (z-score),[12],2.45
same,glycan array binding signal (z-score),[13],-0.039
same,glycan array binding signal (z-score),[14],0.655
same,glycan array binding signal (z-score),[15],2.49
same,glycan array binding signal (z-score),[16],0.085
same,glycan array binding signal (z-score),[17],-0.629
same,glycan array binding signal (z-score),[18],0.85
same,glycan array binding signal (z-score),[19],0.281
same,glycan array binding signal (z-score),[20],-0.112
same,glycan array binding signal (z-score),[21],1.31
same,glycan array binding signal (z-score),[22],-0.212
same,glycan array binding signal (z-score),[23],-0.269

# An excerpt from further up, for reference:
binder,measurement,setting,value
PX9961Q-bfa-504-27-504 (Bacteroides fragilis) (protein) NDWLDRKPADGIPSEDAITNYNDALTARTGMYDGIQGNSNATSYYGARMFYYGDVRADDMQARTQGMRSSSCYEMLYTVDDAPNMWNIPYNVIRRANRLIEAINEKKVTDATEAQIGKIYSEALVVRALVHFDLVRIYGMPYTADNGASLGVPVIVKPLERNDLPSRNTVAEVYTQVITDLTDAINSGYLAKDQTPGYINEWAAKALLTRVYLTKGDNENALKVAEDIITNSPYKLWTNEEYVNAWYKSNGAHTNEMIFEVVNASNDDWTDRNGIAYLLNENGYADAIVTKSFMNMLSQDPKDVRIGMVLPAQYDKDLQEEYGDAKIFINKFPADKDDVGEMRLNNLPLLRLSEVYLSAAEAAAKLGGHQDKAAKYLNEIVQRANPEAKAISEADATVERIILERRKEMIGEGQRYFDALRNNETIVRYKDEGDKGYHYSLIKESQSFDRTYFRAILPIPVDETNVNPNLRAQQNPGY,glycan array binding signal (z-score),[6],-0.406
same,glycan array binding signal (z-score),[7],1.45
